{"source": "PubChem BioAssay AID743454 (Peter MacCallum Cancer Centre, 2014)", "aim": "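Search for knock-downs that restore vorinostat killing in resistant colon cancer cells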 (primary screen)", "cell system": "human HCT116-VR colon cancer cells, selected for vorinostat resistance", "knock-down reagent": "siRNA pool against human genes, 40 nM siRNA pool", "timing": "vorinostat for 24 h, read-out about 72 h after transfection", "conditions": "vorinostat at 2.5 µM final", "detection": "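Cell viability by CellTiter-Fluor and caspase 3/7 activity by luminescence, each scaled to mock wells per plate, duplicates averaged, then robust z-scored over all plates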", "scale": "viability robust z-score: higher = more viable cells than screen typical; caspase robust z-score: higher = more caspase 3/7 activity than screen typical", "rule for the call": "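Hits are knock-downs in viability class RV1/RV2 or caspase class CA1/CA2, excluding ones that killed cells in the no-drug cell-count arm; hits then retested with single siRNAs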", "note": "The whole screen tested about 18,000 reagents; shown is a part drawn at random. Over the whole deposit, 450 (2.5%) are marked active. 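Single biological run; no consistent viability z cut-off exists, so the class columns, not z-scores, define the calls.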 Entries without a mark were called inactive."}
{"Target gene":"MPP2","PubChem SID":"SID152153278","viability hit class":"no change","caspase hit class":"no change","viability robust z-score":-0.18,"caspase robust z-score":1.84}
{"Target gene":"CCDC70","PubChem SID":"SID152155216","viability hit class":"no change","caspase hit class":"no change","viability robust z-score":0.55,"caspase robust z-score":1.3}
{"Target gene":"PARP14","PubChem SID":"SID152151161","viability hit class":"no change","caspase hit class":"no change","viability robust z-score":0.84,"caspase robust z-score":-0.83}
{"Target gene":"CCDC50","PubChem SID":"SID152146936","viability hit class":"no change","caspase hit class":"no change","viability robust z-score":-0.46,"caspase robust z-score":-0.94}

Looked up above.
For “viability robust z-score”, CCDC70 [SID152155216] has 0.55
Value of CCDC50 [SID152146936] under “viability robust z-score”: -0.46

Additional entries:
{"Target gene":"RNF183","PubChem SID":"SID135621321","viability hit class":"no change (active)","caspase hit class":"CA2 (caspase activation)","viability robust z-score":-1.02,"caspase robust z-score":6.48}
{"Target gene":"LAMTOR5","PubChem SID":"SID134316551","viability hit class":"no change","caspase hit class":"no change","viability robust z-score":0.9,"caspase robust z-score":1.12}
{"Target gene":"PCNX4","PubChem SID":"SID152152751","viability hit class":"no change","caspase hit class":"no change","viability robust z-score":1.31,"caspase robust z-score":0.5}
{"Target gene":"SLC2A7","PubChem SID":"SID152149032","viability hit class":"no change","caspase hit class":"no change","viability robust z-score":0.33,"caspase robust z-score":-0.35}
{"Target gene":"CAV1","PubChem SID":"SID134309914","viability hit class":"no change","caspase hit class":"no change","viability robust z-score":-0.18,"caspase robust z-score":-1.07}
{"Target gene":"H2BC14","PubChem SID":"SID152155191","viability hit class":"no change","caspase hit class":"no change","viability robust z-score":-0.91,"caspase robust z-score":0.98}
{"Target gene":"PDCD1","PubChem SID":"SID134310468","viability hit class":"no change","caspase hit class":"no change","viability robust z-score":-0.74,"caspase robust z-score":3.71}
{"Target gene":"SLC22A3","PubChem SID":"SID134312500","viability hit class":"no change","caspase hit class":"no change","viability robust z-score":-0.33,"caspase robust z-score":0.28}
